Test results published in ChEMBL document CHEMBL1123417, “New structure-activity relationships of the quinolone antibacterials using the target enzyme. The development and application of a DNA gyrase assay” (J Med Chem, 1986).

The chains behind the UniProt entries cited, without tags or fusion partners.
UniProt P0AES4, whole entry, looked up: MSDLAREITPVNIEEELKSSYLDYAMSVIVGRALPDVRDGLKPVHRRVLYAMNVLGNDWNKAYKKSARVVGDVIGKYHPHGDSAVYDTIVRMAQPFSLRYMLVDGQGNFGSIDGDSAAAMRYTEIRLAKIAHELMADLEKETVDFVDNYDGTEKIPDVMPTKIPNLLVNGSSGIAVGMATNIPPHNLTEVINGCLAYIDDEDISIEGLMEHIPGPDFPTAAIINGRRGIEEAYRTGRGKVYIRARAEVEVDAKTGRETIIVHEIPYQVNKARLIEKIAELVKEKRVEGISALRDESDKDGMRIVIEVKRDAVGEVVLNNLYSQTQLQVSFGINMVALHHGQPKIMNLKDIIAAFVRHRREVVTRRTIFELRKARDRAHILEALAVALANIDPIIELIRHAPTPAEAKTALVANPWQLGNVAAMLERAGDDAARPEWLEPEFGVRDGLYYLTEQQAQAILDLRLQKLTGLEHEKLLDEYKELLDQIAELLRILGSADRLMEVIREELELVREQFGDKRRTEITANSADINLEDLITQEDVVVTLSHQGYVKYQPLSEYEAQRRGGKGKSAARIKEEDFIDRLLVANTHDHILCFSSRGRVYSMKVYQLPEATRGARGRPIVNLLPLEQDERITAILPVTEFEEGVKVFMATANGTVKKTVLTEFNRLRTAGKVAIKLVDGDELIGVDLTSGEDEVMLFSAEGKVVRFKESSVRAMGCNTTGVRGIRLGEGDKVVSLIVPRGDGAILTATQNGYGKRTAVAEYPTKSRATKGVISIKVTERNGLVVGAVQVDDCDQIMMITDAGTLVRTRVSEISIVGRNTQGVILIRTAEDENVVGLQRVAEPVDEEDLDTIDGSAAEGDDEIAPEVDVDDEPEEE

Molecular target: DNA gyrase (Escherichia coli, UniProt P0AES4+P0AES6)
Test: Inhibitory concentration in supercoiling inhibition Escherichia coli DNA gyrase assay
Type: protein-complex assay
Conditions: read-out: I50 (converted)
Summary of the method: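 Gyrase A and B subunits purified from E. coli H560, each titrated to fully supercoil relaxed Col E1 plasmid (~0.3 μg/mL). Drug in 0.1 N KOH, 40 min at 30 °C, then ATP for 10 min. SDS/proteinase K quench, 1% agarose gel, ethidium stain. Serial dilutions start at 200 μg/mL. I50 is the mean of the initial-inhibition and 100%-inhibition concentrations.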

IC50: 16.5 µM
SMILES: CCn1cc(C(=O)O)c(=O)c2cc(F)c(N3CCN(C)CC3)cc21 [PEFLOXACIN]
